The text below walks through data of US20140030270A1.

Test [1] concerns the target cynomolgus monkey PCSK9, V5-6xHIS tagged (cynomolgus monkey). Briefly: BIAcore solution equilibrium; free PCSK9 measured on immobilized 21B12 surface.
Test [2] shares this target. Put plainly: Biacore solution equilibrium: 0.1/0.3/1/3 nM cPCSK9 + (1 pM ~ 25 nM) 21B12, free cPCSK9 measured on an immobilised 21B12 surface (the sheet names cPCSK9; the text calls FIG. 5C mPCSK9).

These are yes or no findings as the source states them, for the method shown. Binding can be weak; no strength is given.

B1: 21B12 IgG4 (21B12, anti-PCSK9 huIgG4) (antibody, V domains shown)
VH: QVQLVQSGAEVKKPGASVKVSCKASGYTLTSYGISWVRQAPGQGLEWMGWVSFYNGNTNYAQKLQGRGTMTTDPSTSTAYMELRSLRSDDTAVYYCARGYGMDVWGQGTTVTVSS
VL: QSALTQPASVSGSPGQSITISCTGTSSDVGGYNSVSWYQQHPGKAPKLMIYEVSNRPSGVSNRFSGSKSGNTASLTISGLQAEDEADYYCNSYTSTSMVFGGGTKLTVLQ
Regarding B1, the binding entry in test [1] and in test [2] was “binds” in each case.
